Results as given in the supplement of paper PMC5949888.
Most values lie at the floor of the assay. Slopes are relative: functional sequences can read slightly below zero.

The substances below were run on Saccharomyces cerevisiae PS128 hsf1 delta, HSF1(1-493) fusion (assay: growth estimate (transactivation domain function in HSF1 fusion, heat-shock survival) (a.u. (slope of normalised read count over time)); higher = stronger growth at 37°C, i.e. more transactivation activity). Details: library: random library.
PTE showed a growth estimate of less than -0.25. With AMAGTTRINNNSYQRYMDES the growth estimate was -0.201. In the case of RERFVF, the growth estimate is reported as less than -0.25. Work on SQGLLAGPVNRMCAQLMIPH yielded a growth estimate of less than -0.25. Work on VLLVKARGRCWSEKLGSL yielded a growth estimate of less than -0.25. Substance SVVAHTRDTEWNGLPAHVKQ has a growth estimate of less than -0.25. VRNNRVVVPSGRLT gave a growth estimate of less than -0.25. For RTLYIGAMIALGETGI, the growth estimate was less than -0.25. TGRGRSDKVSCHQSNGSPAP gave a growth estimate of less than -0.25. With GMYSLCRWIESRGYRPIFQL the growth estimate was less than -0.25. For SEGTLWWAMNQYALALRSHH, the growth estimate was less than -0.25. Work on GGASRLKREEHAPRRRARLN yielded a growth estimate of less than -0.25. SKIYTWKSARAGAQHAIYTS was tested, and the growth estimate was less than -0.25. GLQSRIRLEEVVSRNTMTSQ gave a growth estimate of less than -0.25. With RQHAAGGDIVTRLKSH the growth estimate was less than -0.25. KGIGRR gave a growth estimate of less than -0.25. PQTVLRSGAVDLITATLLC showed a growth estimate of less than -0.25. With SARGSNDGTRACRSRPRTAS the growth estimate was less than -0.25. VGGAWR was tested, and the growth estimate was -0.246. LNSVIVRWWGNSVGSGDNDG showed a growth estimate of less than -0.25. Work on SKGLLGPEGWLRLHGITDDV yielded a growth estimate of less than -0.25. Work on DNALCSNDGRDATSGQISFR yielded a growth estimate of less than -0.25. NKGSVGTIWKKSAHGIMLTD showed a growth estimate of less than -0.25. LEPLW gave a growth estimate of less than -0.25. Work on PIGISLSQVAKPVKLAIPYP yielded a growth estimate of less than -0.25. PHHLARLAYNDDWRRLHGEI gave a growth estimate of less than -0.25. For RRRGGRRHVGTVDGEGTRN, the growth estimate was less than -0.25. PGDLVLVWRVSGSC gave a growth estimate of less than -0.25. KYSKWVYVRGGSWTQFPVSH was tested, and the growth estimate was less than -0.25. Work on GLPPL yielded a growth estimate of less than -0.25. For SILRASKEPLGIVHLGSRGL, the growth estimate was less than -0.25. With SVVVSASEDLY the growth estimate was less than -0.25. In the case of SSEGDELDGRRCMTQRHV, the growth estimate is reported as less than -0.25. Work on RGFIAPT yielded a growth estimate of less than -0.25. With GILYKIVSGGSGSY the growth estimate was less than -0.25. VQNVMCEKPRLAPTKLVDSG was tested, and the growth estimate was less than -0.25. With GPFGYPADSAHCFRKRDSIY the growth estimate was less than -0.25. In the case of RESVLFD, the growth estimate is reported as less than -0.25. LRNLKSGSQARRREQA was tested, and the growth estimate was less than -0.25. Substance LTAATRRCPGPTQLLGDPAH has a growth estimate of less than -0.25. RVT was tested, and the growth estimate was less than -0.25. PRCSLFSR gave a growth estimate of less than -0.25. In the case of LGERDQNRHG, the growth estimate is reported as less than -0.25. KEHGGRSARRVCLIVKQPH was tested, and the growth estimate was less than -0.25. VLVLGEGGRVIPVSYT was tested, and the growth estimate was less than -0.25. Work on DHLCPADVSTDRNGVCSANV yielded a growth estimate of less than -0.25. SGSVLGGALKLNQRQRENQR gave a growth estimate of less than -0.25. FLHPVGTR gave a growth estimate of less than -0.25. CLLSESGTWDARPLKVHGSL showed a growth estimate of less than -0.25. TGFCSL was tested, and the growth estimate was -0.145. ISNFPVFRPFGNRSNCRPEG gave a growth estimate of -0.245. DCRILWCFNAARLVVIPQDC showed a growth estimate of less than -0.25. For RRQSVVFNSALPKGLARRRR, the growth estimate was less than -0.25. With LAKGCMSHSWNGPSGMVRFA the growth estimate was less than -0.25. THCREWN was tested, and the growth estimate was less than -0.25. In the case of GLVPLWSDQPGFDYSARIAT, the growth estimate is reported as less than -0.25. LCLGTILPWRLKRLWSGVPG showed a growth estimate of less than -0.25. In the case of GGRNSIGLCGNLIC, the growth estimate is reported as less than -0.25. Work on VPRDAEEFSDTAILG yielded a growth estimate of -0.243. For LQGHTSGIPTSLTLCPAQVG, the growth estimate was -0.0864. With WNCKRGKKARQHPGFVTEHG the growth estimate was less than -0.25. Substance WGYCVAPKL has a growth estimate of less than -0.25. For SVADPVDVGDFLARELDCHW, the growth estimate was -0.142. Work on KYPGSMLPSS yielded a growth estimate of less than -0.25. APVLVILAKYCGWVRGFGSG showed a growth estimate of less than -0.25. For IYD, the growth estimate was less than -0.25. With FRRHGSSVLPKTGPRANTLT the growth estimate was less than -0.25. With ALYLSNTQVAPPIRTWTALV the growth estimate was less than -0.25. With GEVRT the growth estimate was less than -0.25. TCGWA was tested, and the growth estimate was less than -0.25. DVCVPGVRESHALPAGFCRI gave a growth estimate of less than -0.25. In the case of RIDGSTDRL, the growth estimate is reported as less than -0.25. In the case of KTGHFTASIFSTVPLHARCG, the growth estimate is reported as less than -0.25. Work on TSFEMTL yielded a growth estimate of less than -0.25. In the case of METYRSRKGRATI, the growth estimate is reported as less than -0.25. Work on AIVIVS yielded a growth estimate of less than -0.25. Work on AHAEHKPPVYLNLRPDFQAQ yielded a growth estimate of less than -0.25. Substance FHSMGGAHPGAEDYHTDSIG has a growth estimate of less than -0.25. In the case of TGLWWYLLRRVDCSKLTLPQ, the growth estimate is reported as less than -0.25. In the case of TVPLPSTCFHEQLT, the growth estimate is reported as less than -0.25. In the case of GQPLDRSGLQGKNTVAGCLD, the growth estimate is reported as less than -0.25. DNEVKF was tested, and the growth estimate was less than -0.25. RFVTRSM showed a growth estimate of less than -0.25. For SRAELICSSVGRSHHASNPT, the growth estimate was less than -0.25. Substance TNNRVPVSALLTSCRRKDDV has a growth estimate of less than -0.25. VKSHQGWWLVSSCD was tested, and the growth estimate was less than -0.25. TSCI showed a growth estimate of less than -0.25. In the case of LLSIARTVRM, the growth estimate is reported as less than -0.25. For QVDIRVIRLDHTQGIIR, the growth estimate was less than -0.25. Work on NAGLRFTLLIILESGQVDCG yielded a growth estimate of less than -0.25. NVTGEIRPDLGERSLTRGAK was tested, and the growth estimate was less than -0.25. IRRLWKTR was tested, and the growth estimate was less than -0.25. GIRIQFRKGWWDLFIPCSIS gave a growth estimate of less than -0.25. For YHLTLGDYMILQTLGQFISL, the growth estimate was less than -0.25. For ARVEVGKDDNFLLQWMKL, the growth estimate was less than -0.25. KLEFLVRCVKERAVGA gave a growth estimate of less than -0.25. With PWRLRALVSTCS the growth estimate was -0.243. Work on DSGSGGQVRAKVHTRTRAHV yielded a growth estimate of less than -0.25. RSILGKGTIALPMPKRWYRS was tested, and the growth estimate was less than -0.25. For GLDACVQWVLGYEGNHRNMR, the growth estimate was less than -0.25. In the case of PPPQREREDKERVFEATAAA, the growth estimate is reported as less than -0.25. In the case of ACKDILQSKLETPNFKSPNC, the growth estimate is reported as less than -0.25. Work on RHLATKKITFVQLPPAHEVQ yielded a growth estimate of less than -0.25. With SSISTAPYDARLLCLRTCCS the growth estimate was less than -0.25. WGQLDA was tested, and the growth estimate was less than -0.25. Work on VPLVCLRWGKVGL yielded a growth estimate of less than -0.25. For LVNLLRNLERRCTPGSRSGL, the growth estimate was less than -0.25. DSFGDVVMLIWTSSLKHWRP was tested, and the growth estimate was -0.245. RSSVCSLRKGSGF showed a growth estimate of less than -0.25. Work on ERTTANGNCTLTMSHGLRRR yielded a growth estimate of less than -0.25. With MIFNPARETRGTLGCD the growth estimate was less than -0.25. In the case of VFSFEPQFSGRALIGWLDLL, the growth estimate is reported as less than -0.25. Substance GRLGLLLVVGRECA has a growth estimate of less than -0.25. Work on GPRMFSNIHRSCCNENCAHV yielded a growth estimate of less than -0.25. Substance SQELGR has a growth estimate of less than -0.25. Substance SQRLVQECSFGHCLPLRSKP has a growth estimate of less than -0.25. With RALRRLGGAAPREALVS the growth estimate was less than -0.25. TVSSGQYFLSNWTARLGP gave a growth estimate of less than -0.25. GMIDRGGVCIRRPGLTMS showed a growth estimate of less than -0.25. For LLDPTYVTSVVCVRQPRKVR, the growth estimate was less than -0.25. For GGGCWWWTFGALWSYAEISD, the growth estimate was less than -0.25. With DIVD the growth estimate was less than -0.25. With PSNRAYGLRRLSHSPLGTIG the growth estimate was less than -0.25. Work on RIML yielded a growth estimate of less than -0.25. In the case of KIPPLQSEFRRPIAGAVCVT, the growth estimate is reported as less than -0.25. Substance RHGPYGGRLTNAAAEM has a growth estimate of -0.227. With CFLMLRTACNNRNASSS the growth estimate was less than -0.25. SHSKTQ was tested, and the growth estimate was less than -0.25. With GSKQTELGRA the growth estimate was -0.203. YVHQIRVRKSWGKNPKSVCS gave a growth estimate of less than -0.25. PGKLCISEYRLSLFQVLAER was tested, and the growth estimate was less than -0.25. For TPTSSPGLFRRLSNW, the growth estimate was less than -0.25. In the case of IGKDWAVGL, the growth estimate is reported as -0.203. PSRSACM was tested, and the growth estimate was less than -0.25. QAGY showed a growth estimate of less than -0.25. With AARARDLPVPA the growth estimate was less than -0.25. FSVAAAVNEKP showed a growth estimate of less than -0.25. Substance FSEVPWGIPIKNSLG has a growth estimate of less than -0.25. Substance SWVGQLNA has a growth estimate of less than -0.25. With GTRSQTTLIQCKFNYKSGNI the growth estimate was less than -0.25. Substance GQLVRNRTNRRIPMFCTLGR has a growth estimate of less than -0.25. Substance SVVAMVPFGLWVNNSPGARR has a growth estimate of less than -0.25. QEHFWRSLRLA showed a growth estimate of less than -0.25. For KSRAGRMVRCVPVCDTGARS, the growth estimate was less than -0.25. DLHWFATSLGNATR was tested, and the growth estimate was -0.0874. With ERGRRGLMDSFLCPRQ the growth estimate was less than -0.25. With NNQRVT the growth estimate was less than -0.25. GVARAGFLGARTRWTGAQQG was tested, and the growth estimate was less than -0.25. With AINKMT the growth estimate was less than -0.25. GTRSVKQGF showed a growth estimate of less than -0.25. Work on SSRLHR yielded a growth estimate of less than -0.25. With ESSTGRGLTRPIRDFFGSIP the growth estimate was less than -0.25. Substance LNRSRPGVSHTSTIPASR has a growth estimate of less than -0.25. KGVATVGDGLRAVGKQTVPP was tested, and the growth estimate was less than -0.25. YVVLSGSRTSECPGGSPHMS was tested, and the growth estimate was less than -0.25.
